Values joined by “and” are separate entries in the source; they are usually repeats but may differ in a detail not shown here. Equal entries are not always repeated. Inconclusive results, whose numbers are uncertain, are shown with a selection of clear calls. Where the call is inconclusive, the potency comes from a doubtful curve fit. Active and inactive are the calls of the source. The call rests on the fitted dose curve.
Experiment: p53 small molecule agonists, cell-based qHTS assay with human liver microsomes (AID 1963577);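 on activation: p53 response element beta-lactamase reporter cells with liver microsomes plus NADPH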
Details: HCT-116 p53RE-bla with human liver microsomes, ratio, 16 h; activation: at 66 µM (top of the series) unless noted
Description: National Center for Advancing Translational Sciences [NCATS]
Division of Preclinical Innovation [DPI]
U.S. Environmental Protection Agency [EPA]
National Institutes of Environmental Health Sciences [NIEHS]
National Toxicology Program [NTP]
U.S. Food and Drug Administration [FDA]
p53, a tumor suppressor protein, is activated following cellular insult, including DNA damage and other cellular stresses. The activation of p53 regulates cell fate by inducing DNA repair, cell cycle arrest, apoptosis, or cellular senescence. The activation of p53, therefore, is a good indicator of DNA damage and other cellular stresses. […] The activation of the reporter gene under culture conditions can be detected by fluorescence intensity.
Tox21 Assay Protocol Summary:
The p53RE-bla cells were dispensed at 4,000cells/3ul/well in 1536-well black-clear bottom plates. After the assay plates were incubated at 37 C, 5% CO2 incubator for 5 hours, 23 nL of compounds dissolved in DMSO, positive controls or DMSO only was transferred to the assay plate. Following compound addition, 3 uL of human liver microsomes (XenoTech, Kansas City, KS) at final concentration of 0.5 mg/mL and 1uL of Beta-Nicotinamide adenine dinucleotide 2-phosphate (NADPH) at final concentration of 0.5 mg/mL were transferred to the assay plate. The plates were incubated at 37 C for 16 hours. 1 uL of LiveBLAzer detection mixture was added to each well and the plates were incubated at room temperature in the dark for 2 h.
With CC(C)(O)c1cnn2c(-c3ccc(F)c(-c4c(F)cccc4C#N)c3)cnc2n1 the Potency was inconclusive: 40.8 µM.
In the case of COC(=O)N(C(=O)N1COC2(C(=O)OC)Cc3cc(Cl)ccc3C2=N1)c1ccc(OC(F)(F)F)cc1 (stereo not given), the “activation” value is reported as inactive: -8.68% [at 30.3 µM].
For CNC(=O)O/N=C/C(C)(C)S(C)(=O)=O, the activation was inconclusive: 3.48% and the Potency was inconclusive: 18.3 µM [fluorescent, partial curve, poor fit].
With C[C@]12CC[C@@H]3c4ccc(OC(=O)N(CCCl)CCCl)cc4CC[C@H]3[C@@H]1CC[C@@H]2O the Potency was inconclusive: 14.1 µM [rising, partial curve].
For CCOP(=S)(OCC)SCSP(=S)(OCC)OCC, the Potency was inconclusive: 4.08 µM [fluorescent, full curve].
With CCOP(=O)(OCC)O/C(=C/Cl)c1ccc(Cl)cc1Cl the Potency was active: 2.57 µM.
In the case of Oc1ccc2c3c1O[C@H]1[C@@H](O)C=C[C@H]4[C@@H](C2)NCC[C@@]341, the Potency is reported as inconclusive: 0.471 µM [rising, single point].
For COP(N)(=O)SC (stereo not given), the Potency was inconclusive: 1.27 µM [fluorescent, full curve] and the activation was inconclusive: 19.3%.
For NC(=O)CI, the “activation” value was inactive: -1.62%.
In the case of COP(=S)(OC)Oc1ccc([N+](=O)[O-])c(C)c1, the Potency is reported as inconclusive: 4.58 µM [falling, full curve, poor fit].
For COP(=O)(OC)O/C(C)=C/C(=O)N(C)C, the Potency was inconclusive: 0.029 µM [fluorescent, full curve].
In the case of CCOP(=S)(OCC)OP(=S)(OCC)OCC, the Potency is reported as inconclusive: 8.35 µM [activator, full curve] and active: 18.2 µM.
With CCOP(=S)(OCC)SCn1c(=O)oc2cc(Cl)ccc21 the activation was inconclusive: 8.6% and the Potency was inconclusive: 3.47 µM [activator, full curve].
With C[C@H]1CCC[C@H](O)CCCCCc2cc(O)cc(O)c2C(=O)O1 the Potency was inconclusive: 46.1 µM [activator, partial curve, poor fit].
For CCN(CC)CCO, the Potency was inconclusive: 40.8 µM [fluorescent].
For COP(=S)(OC)Oc1c(Cl)cc(C)cc1Cl, the Potency was active: 9.13 µM.
In the case of CC(C1CC1)C(O)(Cn1cncn1)c1ccc(Cl)cc1 (stereo not given), the Potency is reported as inconclusive: 51 µM [fluorescent, single point].
For CCOC(=O)CCN(SN(C)C(=O)Oc1cccc2c1OC(C)(C)C2)C(C)C, the Potency was inconclusive: 20.4 µM [fluorescent, partial curve].
With CC1=NNC(=O)N(/N=C/c2cccnc2)C1 the Potency was inconclusive: 16.2 µM [fluorescent, partial curve].
For CCOc1cccc(C2(N3CCN(c4ccccc4)CC3)CCC(C)CC2)c1 (stereo not given), the “activation” value was inactive: -1.47%.
For CC(C)(O)C(=O)Nc1ccc([N+](=O)[O-])c(C(F)(F)F)c1, the Potency was inconclusive: 33.4 µM [fluorescent, partial curve].
In the case of CN1C[C@H](CNC(=O)OCc2ccccc2)C[C@@H]2c3cccc4c3c(cn4C)C[C@H]21, the Potency is reported as inconclusive: 22.3 µM [rising, single point].
For CCCCCCC1CCOC1=O (stereo not given), the “activation” value was inactive: 2.17%.
For S=C=Nc1cccc2ccccc12, the “activation” value was inactive: -0.358%.
In the case of CN(C)C(=O)Oc1cc(OC(=O)N(C)C)cc(C(O)CNC(C)(C)C)c1 (stereo not given), the Potency is reported as inconclusive: 3.97 µM [fluorescent, partial curve].
With CCCSP(=S)(OCC)Oc1ccc(SC)cc1 (stereo not given) the Potency was inconclusive: 2.04 µM [activator, full curve].
For CNC(=O)O/N=C(\C)SC, the Potency was inconclusive: 7.25 µM [fluorescent, full curve].
In the case of COC(=O)/C=C(\C)OP(=O)(OC)OC, the Potency is reported as inconclusive: 0.204 µM [fluorescent, full curve].
For CCCC(C)(COC(N)=O)COC(=O)NC(C)C (stereo not given), the Potency was “inactive”.
With ClC(Br)Br the activation was inconclusive: 15.6%.
In the case of CNC(=O)O/N=C/C(C)(C)SC, the Potency is reported as inconclusive: 8.21 µM [fluorescent, partial curve] and inconclusive: 1.45 µM [fluorescent].
For CCCCCCCCCCCOC(=O)c1ccccc1C(=O)OCCCCCCCCCCC, the Potency was “inactive”.
With NC(=O)CCl the “activation” value was inactive: -9.07%.
With O=C(O)c1nc(Cl)ccc1Cl the Potency was inconclusive: 45.8 µM [falling, partial curve, poor fit].
For CCN(CC)C(=O)SCc1ccc(Cl)cc1, the Potency was inconclusive: 1.67 µM [fluorescent, full curve] and inconclusive: 576 nM [fluorescent, full curve].
With Cc1ccccc1[N+](=O)[O-] the Potency was “inactive”.
For COC(=O)c1ccccc1S(=O)(=O)NC(=O)N(C)c1nc(C)nc(OC)n1, the Potency was inconclusive: 49.6 µM [activator].
On the % scale 0 is the no-effect control and ±100 the full control effect; potency means the concentration at half of the fitted maximal effect.
